Experiment: general procedure: peptide synthesis; 2-chlorotrityl resin (1.5 mM/g capacity); DIC/HOBt
Details: whole synthesis
[1] = HELC, scale of the general procedure 6.0 g resin (fragments), 2.0 g resin (final peptide)
[2] = scale of the general procedure 6.0 g resin (fragments), 2.0 g resin (final peptide)

Substance	crude mass [g]	crude HPLC purity [1] [%]	crude yield [2] [%]	isolated mass [g]	final HPLC purity [1] [%]	isolated yield [2] [%]
Fmoc-Glu(OtBu)-Glu(OtBu)-Glu(OtBu)-Ala-Val-Arg(CF3COOH)-Leu-Phe-Ile-Glu(OtBu)-Trp(Boc)-Leu-Lys(Boc)-Asn(Trt)-Gly-OH	21.8	95	80			
14-glycine-exendin-4 (Heloderma suspectum)-(1-39)-peptidyl-octa-D-arginyl-glycine				3.9	97.5	20
Boc-His(Trt)-Gly-Glu(OtBu)-Gly-Thr(tBu)-Phe-Thr(tBu)-Ser(tBu)-Asp(OtBu)-Leu-Ser(tBu)-Lys(Boc)-Gln(Trt)-Gly-OH	20.9	95	85			
